The whole screen tested about 340,000 compounds, of which about 6,200 (1.8%) were called active. Inconclusive means that the source gave no clear call. Such entries were picked first, then a sample of the others. The call rests on the fitted dose curve; in most records, active means well fitted activation curve with a large enough effect; inconclusive means small, poorly fitted or top-dose-only effect; inactive means no such curve, though single readings can be large or run the other way. Where the call is inconclusive, the potency comes from a doubtful curve fit.
experiment: A quantitative high throughput screen for small molecules that induce DNA re-replication in SW480 colon adenocarcinoma cells.; further: nearly all actives have a fitted effect of over 55% in size; on re-replication activation: % of control where 0% means no effect; conditions: Hoechst DNA content imaging, 48 h; re-replication activation: at 46.1 µM (top of the series) unless noted
Outline: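 Image-based read-out: total Hoechst fluorescence of nuclei (405 nm excitation, 500-530 nm emission), with hits raising the fraction of high-intensity nuclei. SW480 colon cells incubated 48 hr with compounds at 37 C.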
Potency means the concentration at half of the fitted maximal effect.

Compound	Potency	re-replication activation
Cc1ccc(C)n1-c1ccc(N2CCOCC2)c([N+](=O)[O-])c1	inconclusive: 29.1 µM [activator, single point]	–
CC(=O)NS(=O)(=O)c1ccc(NC(=O)c2cc3c(=O)n4ccccc4nc3s2)cc1	inconclusive: 20.6 µM [activator, single point]	–
O=C(CSC(=S)N1CCN(c2ccccc2)CC1)Nc1nc(-c2ccccc2)c(-c2ccccc2)o1	inactive	–
CCN(C(=O)COc1ccc(C)nc1[N+](=O)[O-])C1CCS(=O)(=O)C1 (stereo not given)	inactive	–
CN(c1ccccc1)c1nc(N)c([N+](=O)[O-])c(N2CCCCCC2)n1	inconclusive: 6.51 µM [activator, partial curve, poor fit]	–
O=C(Nc1ccccc1OC(=O)c1ccccc1)c1ccccc1	inconclusive: 32.6 µM [activator, partial curve, poor fit]	–
CC(C)CC1Nc2ncnc(N3CCCCC3)c2N(Cc2ccccc2)C1=O (stereo not given)	inconclusive: 20.6 µM [activator, single point]	–
CCOC(=O)c1c(NC(=O)c2c(C(=O)O)cccc2[N+](=O)[O-])sc2c1CCCC2	inactive	–
Cc1ccc(NC(=O)C2C3C=CC4(CN(Cc5cccnc5)C(=O)C24)O3)cc1 (stereo not given)	–	inconclusive: 40.8% [activator]
Oc1ccc(-c2csc(Nc3ncccn3)n2)c(O)c1	inactive	–
CCC1(c2ccccc2)ON(c2c(Br)cccc2Br)C1=O (stereo not given)	inconclusive: 29.1 µM [activator, single point]	–
Cc1ccc(CCNC(=O)C2CCN(S(=O)(=O)c3ccc4c(c3)NC(=O)CO4)CC2)cc1	inactive	–
C/C(=N/NC(=O)c1ccc(C)s1)c1cccc(NC(=O)COc2ccc(Cl)cc2C)c1	inactive	–
COc1ccc(S(=O)(=O)NCCc2cn3nc(C)c(C)nc3n2)cc1F	inconclusive: 6.51 µM [activator, partial curve, poor fit]	–
CC(=O)Oc1cccc(N2C(=O)c3cccc4c([N+](=O)[O-])ccc(c34)C2=O)c1	inconclusive: 13 µM [activator, partial curve, poor fit]	–
CC(CC(=O)NC1CCCCC1)S(=O)(=O)c1ccc2c(c1)NC(=O)CO2 (stereo not given)	inactive	–
O=C1Nc2ccc(Cl)cc2/C1=C/C1CC=CCC1 (stereo not given)	inconclusive: 20.6 µM [activator, single point]	–
CC(C)=CCOc1ccc([C@@H]2COc3c(ccc4c3C=CC(C)(C)O4)C2)c(O)c1	inactive	–
Cc1csc(Nc2nc(N)c(C(=O)Nc3cc(Cl)ccc3F)o2)n1	inconclusive: 23.1 µM [activator, partial curve, poor fit]	–
CC(=O)CCN1CCOCC1	inconclusive: 25.9 µM [activator, single point]	–
CCCCCN1CC(=O)N2C(C)c3[nH]c4ccccc4c3C[C@H]2C1=O (stereo not given in full)	inactive	–
C=CCOc1ccc(C2C(C#N)=C(N)N(Nc3ccccc3)C3=C2C(=O)CCC3)cc1OC (stereo not given)	inconclusive: 25.9 µM [activator, single point]	–
COc1ccc(CSC2=CS(=O)(=O)c3ccccc3N2)cc1	inactive	–
Cc1ccc(-c2nn(-c3cccc(F)c3)cc2CN2CCN(c3ccccn3)CC2)o1	inconclusive: 29.1 µM [activator, partial curve, poor fit]	–

Copied from the list:
In Potency, Cc1ccc(C)n1-c1ccc(N2CCOCC2)c([N+](=O)[O-])c1 shows inconclusive: 29.1 µM [activator, single point]
In Potency, CCOC(=O)c1c(NC(=O)c2c(C(=O)O)cccc2[N+](=O)[O-])sc2c1CCCC2 shows inactive

The list goes on:

Compound	Potency	re-replication activation
COc1ccc(S(=O)(=O)N2CCN(C(=O)CC3CC4CCC3C4)CC2)cc1 (stereo not given)	inconclusive: 29.1 µM [activator, single point]	–
Cc1ccc(C(=O)O/N=C/c2c(C)nn(C)c2Cl)cc1	inconclusive: 4.61 µM [activator, partial curve, poor fit]	–
O=C(C[C@H]1C[C@H](C(=O)N2CCCCC2)[C@@]2(CCc3ccccc3)c3[nH]c4cc(-c5ccco5)ccc4c3CCN2C1=O)NCCC1=CCCCC1	inactive	–
NC(=O)c1ccccc1NC(=O)CN1CCN(Cc2ccc(Cl)cc2Cl)CC1	inconclusive: 16.4 µM [activator, single point]	–
O=C(Nc1c(F)cccc1F)c1ccc2c(c1)CCN2S(=O)(=O)c1ccccc1	inactive	–
Oc1ccc(/C=N/N2CCCCC2)cc1O	inconclusive: 20.6 µM [activator, single point]	–
O=C(c1ccccc1)c1ccc2nc(-c3ccco3)c(-c3ccco3)nc2c1	inconclusive: 29.1 µM [activator, single point]	–
COc1cc(CC(=O)OCC(=O)NCc2ccco2)cc(OC)c1OC	inactive	–
CC(C)NC(=O)C(=O)Nc1ccc2c(c1)N(S(=O)(=O)c1cccs1)CCC2	inconclusive: 32.6 µM [activator, partial curve, poor fit]	–
O=C(/C=C/c1ccco1)NC(=S)Nc1cccc([N+](=O)[O-])c1	inconclusive: 29.1 µM [activator, single point]	–
C=CCN1C(=O)c2cccc3c(N4CCCCC4)ccc(c23)C1=O	inconclusive: 16.4 µM [activator, single point]	–
Oc1ccccc1Nc1nc(NCc2ccco2)c2ccccc2n1	inactive	–
Cc1cc(C)nc(NC(=O)CCCC(=O)O)c1	inactive	–
COc1ccc(C2=NN(C(=O)CCCC(=O)O)C(c3cccs3)C2)cc1OC (stereo not given)	inconclusive: 18.4 µM [activator, single point]	–
COc1ccccc1C(=O)N(Cc1nc(-c2ccc(Cl)cc2)no1)C(C)C	inactive	–
Cc1ccc(NC(=O)c2c(Cl)n(C)c3ccccc23)cc1	inconclusive: 29.1 µM [activator, partial curve, poor fit]	–
CCOC(=O)c1ccsc1NC(=O)CCS(=O)(=O)c1ccccc1	inconclusive: 20.6 µM [activator, single point]	–
c1ccc(CCNc2nc3ccccc3s2)cc1	inactive	–
Cc1ccccc1-n1nc(C)c2c(C(=O)NN)cc(-c3ccncc3)nc21	inconclusive: 6.51 µM [activator, single point]	–
CSc1ccc(/C=C(/NC(=O)c2ccco2)C(=O)N2CCCCCC2)cc1	inactive	–
COCCCn1c(-c2ccco2)nc2ccccc2c1=O	inactive	–
COc1ccccc1C(=O)NC(=O)COC(=O)CN1C(=O)NC(C)(C)C1=O	inactive	–
COc1ccc(-n2c(C)cc(C(=O)CN3C(=O)NC4(CCCc5sccc54)C3=O)c2C)cc1 (stereo not given)	inactive	–
Cn1c(NCC(O)c2ccccc2)nc2c1c(=O)n(Cc1ccc(Cl)c(Cl)c1)c(=O)n2C (stereo not given)	inconclusive: 29.1 µM [activator, single point]	–

Compound	Potency	re-replication activation
Cc1cnc(NC(=O)CC(C)c2ccccc2)s1 (stereo not given)	active: 5.8 µM	–
CC(=O)N(C)Cc1ccc(C(=O)CSc2nnc(C3CC3)n2C2CC2)cc1	inactive	–
CN1CCN(C(=O)CCN2C(=O)/C(=C\c3ccc(Cl)cc3Cl)SC2=S)CC1	inconclusive: 20.6 µM [activator, single point]	–
Cc1ccc(NC(=O)Cn2c(O)c(N=NC(N)=O)c3ccccc32)cc1	inconclusive: 18.4 µM [activator, single point]	–
S=C1NC=NC2N=CNC12 (stereo not given)	inconclusive: 13.3 µM [activator, single point]	–
C/C(=N\NC(=O)c1c[nH]c2ccccc12)c1ccc(C)o1	inactive	–
CCCC1C(=O)Nc2ccccc2N1C(=O)c1ccc(C(C)(C)C)cc1 (stereo not given)	inconclusive: 18.4 µM [activator, single point]	–
CCN(CC)/C(Sc1ccccc1)=C(\C(Cl)=C(Cl)Cl)[N+](=O)[O-]	inconclusive: 11.6 µM [activator, single point]	–
Clc1ccc2ncc(-c3nnnn3-c3ccccc3)c(-c3ccccc3)c2c1	inconclusive: 29.1 µM [activator, single point]	–
CC(=O)c1c(-c2ccccc2)c2cc([N+](=O)[O-])ccc2[nH]c1=O	inactive	–
COc1ccc(NC(=O)c2cccc3c2C(=O)c2ccc(-c4ccc(F)cc4OCc4ccccc4)cc2S3(=O)=O)cc1	inconclusive: 2.59 µM [activator, single point]	–
O=C(Nc1cc([N+](=O)[O-])ccc1O)c1cccc([N+](=O)[O-])c1	inconclusive: 0.103 µM [activator, full curve, poor fit]	–
Cc1nn(-c2ccccc2)c(N2CCCC2)c1/C=N/NC(=O)c1cc2ccccc2cc1O	inconclusive: 29.1 µM [activator, partial curve, poor fit]	–
CCCCOc1ccc(CNC(=S)N/N=C/c2ccc(OC)c(OC)c2)cc1	inconclusive: 18.4 µM [activator, partial curve, poor fit]	–
O=C1CCCCc2sc(Br)c([N+](=O)[O-])c2N1	active: 2.91 µM	–
CN(C)S(=O)(=O)N1CCc2ccc(NC(=O)C3CCCO3)cc2C1 (stereo not given)	inconclusive: 16.4 µM [activator, single point]	–
COc1ccc(-c2nc(CS(=O)(=O)CC(=O)Nc3ccc(Cl)cc3)c(C)o2)cc1	inconclusive: 23.1 µM [activator, partial curve, poor fit]	–
CCC[C@@H](O)c1cc2cc(OC)c(OC)cc2c(=O)o1	inactive	–
CCC(=O)Oc1ccc2c(c1)OC1(OC(C)=O)OC(C)CC1=C2C (stereo not given)	inconclusive: 18.4 µM [activator, single point]	–
N#Cc1c(NCCCO)nc(-c2ccco2)c2c1CCCC2	active: 5.8 µM	–
COc1ccc(O)c(/C=N/NC(=O)c2ccc(OCc3cccc(Br)c3)cc2)c1	active: 4.11 µM	–
C=CC[C@@H](CC(=O)N(CCO)Cc1ccccc1)C(=O)N[C@@H](COC(=O)[C@H](CC=C)CC(=O)OC(C)(C)C)Cc1c[nH]c2ccccc12	inconclusive: 29.1 µM [activator, single point]	–

Molecules shown so far containing a tert-butyl group, in the order listed:
Compound	Potency	re-replication activation
CCCC1C(=O)Nc2ccccc2N1C(=O)c1ccc(C(C)(C)C)cc1 (stereo not given)	inconclusive: 18.4 µM [activator, single point]	–
C=CC[C@@H](CC(=O)N(CCO)Cc1ccccc1)C(=O)N[C@@H](COC(=O)[C@H](CC=C)CC(=O)OC(C)(C)C)Cc1c[nH]c2ccccc12	inconclusive: 29.1 µM [activator, single point]	–
